Experimental data taken from paper PMC3026020.
Results are given in words; binding and its absence hold for the method and conditions named. In cells and extracts the contact can be indirect. Some binding calls cover weakened binding; strength is not graded here.

Sequences of proteins named here, by UniProt entry; tags and fusion partners are left off.
UniProt Q02156: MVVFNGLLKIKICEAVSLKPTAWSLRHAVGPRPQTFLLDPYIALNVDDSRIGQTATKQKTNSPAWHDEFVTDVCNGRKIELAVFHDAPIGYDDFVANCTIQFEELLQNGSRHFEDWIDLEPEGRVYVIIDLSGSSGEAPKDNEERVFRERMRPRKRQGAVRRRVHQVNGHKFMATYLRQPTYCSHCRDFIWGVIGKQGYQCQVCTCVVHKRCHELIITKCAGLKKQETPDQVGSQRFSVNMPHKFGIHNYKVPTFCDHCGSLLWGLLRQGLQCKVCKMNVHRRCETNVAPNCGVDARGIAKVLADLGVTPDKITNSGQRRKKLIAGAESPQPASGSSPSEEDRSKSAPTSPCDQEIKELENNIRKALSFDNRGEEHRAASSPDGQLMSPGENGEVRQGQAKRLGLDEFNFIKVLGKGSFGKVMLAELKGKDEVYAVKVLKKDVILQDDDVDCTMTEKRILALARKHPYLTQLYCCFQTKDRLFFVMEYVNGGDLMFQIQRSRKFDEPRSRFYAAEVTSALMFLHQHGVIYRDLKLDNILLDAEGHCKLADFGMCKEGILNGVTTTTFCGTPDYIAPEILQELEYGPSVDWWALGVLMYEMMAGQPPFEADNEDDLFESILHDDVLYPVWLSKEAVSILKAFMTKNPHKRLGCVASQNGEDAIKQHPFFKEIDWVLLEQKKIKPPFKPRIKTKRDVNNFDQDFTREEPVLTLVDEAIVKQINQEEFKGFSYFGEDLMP

Biological target: T1, keratin 18 (human (endogenous in SMMC-7721)) (UniProt P05783)
T1 sequence: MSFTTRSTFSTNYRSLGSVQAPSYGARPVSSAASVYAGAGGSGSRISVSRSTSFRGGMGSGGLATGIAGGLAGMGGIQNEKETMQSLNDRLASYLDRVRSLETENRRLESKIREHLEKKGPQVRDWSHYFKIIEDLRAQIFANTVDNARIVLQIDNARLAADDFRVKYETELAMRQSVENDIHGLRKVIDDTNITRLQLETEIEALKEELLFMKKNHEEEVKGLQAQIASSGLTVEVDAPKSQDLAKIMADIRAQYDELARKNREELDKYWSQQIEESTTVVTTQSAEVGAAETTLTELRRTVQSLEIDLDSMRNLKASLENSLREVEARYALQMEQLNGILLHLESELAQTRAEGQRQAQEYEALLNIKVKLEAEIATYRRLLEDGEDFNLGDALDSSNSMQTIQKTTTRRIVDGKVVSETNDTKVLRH
Assay: co-IP; SMMC-7721 lysate in keratin lysis buffer with 1 X binding buffer (40 mM KCl, 3 mM MgCl2, 10 mM HEPES pH 7.8, 1 mM DTT), 4°C; precipitated with anti-CK18 antibody and an antibody against IgG; Western blots for PKCε and CK18; control lanes without RNA, other lanes with increasing C/EBPβ 3′UTR RNA or β-tubulin RNA

binding: binds
Substance: protein kinase Cε (from UniProt Q02156 1-737) (enzyme)
